PubChem BioAssay AID652259 | Drosophila RNAi Screening Center, 2013

Purpose: 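Genome-wide hunt for genes that control Wingless pathway activity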 (primary screen)
System: Drosophila clone 8 imaginal disc epithelial cells
Reagent: long dsRNA against Drosophila genes
Conditions: pathway stimulated by co-transfected Wingless expression plasmid
Measurement: 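Firefly luciferase from a tcf-site Wingless reporter, measured alongside co-transfected Renilla luciferase that tracks transfection; pathway stimulated by a Wingless plasmid; the firefly-to-Renilla ratio is not deposited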
Direction: firefly reporter light: higher = more Wg reporter light, before normalisation; Renilla control light: higher = more transfected or surviving cells
Active means: 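a knock-down is a candidate when at least two out of four statistical tests show it departing from its plate mean; one test alone signals a weak candidate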
Calls: active = candidate regulator (raises or lowers reporter); inactive = not a candidate
The deposit covers about 22,000 reagents; shown is a random part of those with a known target gene and a result. Of all reagents, 233 (1.1%) are marked active. 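Light values are raw, unnormalised plate reads; the ratio scores behind the reporter calls were not deposited.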 Reagents against one gene are numbered here. A plus sign joins genes that one reagent is predicted to hit. Not given: the amount of reagent, the time to read-out, the dose of the treatment.

| gene | reagent no. | reporter change call, replicate 1 | firefly reporter light, replicate 1 | firefly reporter light, replicate 2 | Renilla control light, replicate 1 | Renilla control light, replicate 2 | activity call |
| --- | --- | --- | --- | --- | --- | --- | --- |
| Fbw5 | 1 | – | 2978 | 6336 | 884 | 2624 | inactive |
| ORY | 1 | – | 8.70e5 | 9.37e5 | 3.95e5 | 4.35e5 | inactive |
| Nup107 | 1 | – | 2771 | 7510 | 856 | 2500 | inactive |
| CG15548 | 1 | – | 10485 | – | 3417 | – | inactive |
| CG14840 | 1 | – | 12192 | – | 3232 | – | inactive |
| H | 1 | – | 16379 | – | 4074 | – | inactive |
| tant | 1 | – | 1371 | 5360 | 880 | 2626 | inactive |
| Obp69a | 1 | – | 3132 | – | 872 | – | inactive |
| CG31913 | 1 | – | 14266 | – | 6571 | – | inactive |
| CG14346 | 1 | – | 2628 | 8904 | 1132 | 3084 | inactive |
| Gem2 | 1 | – | 4378 | – | 1972 | – | inactive |
| CCT4 | 1 | – | 3274 | 6185 | 893 | 2346 | inactive |
| Lint-O | 1 | – | 20934 | – | 13492 | – | inactive |
| CG9922 | 1 | – | 17683 | – | 5125 | – | inactive |
| CG1801 | 1 | – | 28288 | – | 13926 | – | inactive |
| CycG | 1 | – | 2246 | 5993 | 947 | 2075 | inactive |
| Dyb | 1 | – | 13649 | – | 4611 | – | inactive |
| Dyb | 2 | – | 8.86e5 | 8.75e5 | 4.18e5 | 5.06e5 | inactive |
| CG5961 | 1 | – | 9333 | – | 4160 | – | inactive |
| P5CDh1 | 1 | – | 5165 | – | 2572 | – | inactive |
| CG2983 | 1 | – | 3264 | 11414 | 1190 | 3676 | inactive |
| Nrd1 | 1 | – | 2059 | 5559 | 840 | 2284 | inactive |
| ltl | 1 | – | 1925 | 8308 | 893 | 2902 | inactive |
| ltl | 2 | – | 1124 | 5260 | 993 | 2304 | inactive |
| rn | 1 | – | 14656 | – | 1884 | – | inactive |
| rn | 2 | – | 15430 | – | 4817 | – | inactive |
| rn | 3 | – | 13388 | – | 5155 | – | inactive |
| rn | 4 | – | 18816 | – | 4816 | – | inactive |
| rn | 5 | – | 5.82e5 | 7.22e5 | 1.59e5 | 1.85e5 | inactive |
| Fnta | 1 | – | 6944 | – | 3488 | – | inactive |
| IntS2 | 1 | – | 4141 | 10197 | 1008 | 4032 | inactive |
| mod(mdg4) | 1 | – | 3467 | – | 1528 | – | inactive |
| mod(mdg4) | 2 | – | 3536 | – | 1472 | – | inactive |
| mod(mdg4) | 3 | – | 2441 | – | 1058 | – | inactive |
| mod(mdg4) | 4 | – | 4162 | – | 1192 | – | inactive |
| mod(mdg4) | 5 | – | 32648 | – | 7605 | – | inactive |
| mod(mdg4) | 6 | – | 2983 | 7794 | 1576 | 2852 | inactive |
| Dif | 1 | – | 3516 | 9159 | 1624 | 4077 | inactive |
| CG10405 | 1 | – | 17916 | – | 5049 | – | inactive |
| pirk | 1 | – | 2755 | 9925 | 736 | 2696 | inactive |
| Rap2l | 1 | – | 3088 | 5757 | 432 | 1936 | inactive |
| Sgs3 | 1 | – | 7784 | – | 4104 | – | inactive |
| PGAP1 | 1 | – | 2059 | 4428 | 714 | 1970 | inactive |
| Ugt35E1 | 1 | – | 21259 | – | 6502 | – | inactive |
| Las | 1 | – | 5238 | – | 1236 | – | inactive |
| CG5810 | 1 | – | 28768 | – | 7267 | – | inactive |
| CG5810 | 2 | – | 5.44e5 | 5.42e5 | 2.03e5 | 2.30e5 | inactive |
| HIPP1 | 1 | – | 2349 | – | 1256 | – | inactive |
| fwe | 1 | – | 4725 | – | 1511 | – | inactive |
| fwe | 2 | – | 6282 | – | 2132 | – | inactive |
| fwe | 3 | – | 4.27e5 | 3.75e5 | 1.62e5 | 1.06e5 | inactive |
| TwdlM | 1 | – | 8183 | – | 3894 | – | inactive |
| CG17177 | 1 | – | 10614 | – | 4672 | – | inactive |
| Mau2 | 1 | – | 3043 | – | 1478 | – | inactive |
| CG8152 | 1 | – | 5509 | – | 2315 | – | inactive |
| CG10970 | 1 | – | 2688 | 9329 | 867 | 2740 | inactive |
| CadN | 1 | – | 3810 | 9668 | 1193 | 4544 | inactive |
| CG12708 | 1 | – | 24589 | – | 10566 | – | inactive |
| sdt | 1 | – | 2711 | – | 647 | – | inactive |
| sdt | 2 | – | 3145 | – | 1286 | – | inactive |
| sdt | 3 | – | 16819 | – | 7857 | – | inactive |
| sdt | 4 | – | 21945 | – | 9450 | – | inactive |
| sdt | 5 | – | 19709 | – | 9413 | – | inactive |
| sdt | 6 | – | 15770 | – | 4688 | – | inactive |
| sdt | 7 | – | 12336 | – | 2252 | – | inactive |
| sdt | 8 | – | 20903 | – | 6789 | – | inactive |
| sdt | 9 | – | 24328 | – | 11408 | – | inactive |
| aqz | 1 | – | 28032 | – | 5079 | – | inactive |
| CG31088 | 1 | – | 3285 | – | 1253 | – | inactive |
| kek5 | 1 | – | 17690 | – | 8516 | – | inactive |
| RpS5b | 1 | – | 10491 | – | 3057 | – | inactive |
| CG11378 | 1 | – | 24716 | – | 11979 | – | inactive |
| soti | 1 | – | 7163 | – | 2995 | – | inactive |
| Klp61F | 1 | – | 5569 | – | 1202 | – | inactive |
| DIP-zeta | 1 | – | 3216 | 8194 | 955 | 4004 | inactive |
| DIP-zeta | 2 | – | 4449 | 10945 | 976 | 4773 | inactive |
| DIP-zeta | 3 | – | 2048 | 7088 | 682 | 2753 | inactive |
| CR33283 | 1 | – | 5.20e5 | 5.59e5 | 2.06e5 | 2.48e5 | inactive |
| CG15721 | 1 | – | 29990 | – | 13126 | – | inactive |
| CG5958 | 1 | – | 1712 | 5632 | 618 | 1749 | inactive |
| Ssrp | 1 | Wg reporter activity raised | 17059 | – | 3236 | – | inactive |
| His4:CG33883 + His4:CG33889 + His4:CG33899 + 20 more | 1 | – | 23347 | – | 3488 | – | inactive |
| CG15614 | 1 | – | 6656 | – | 1867 | – | inactive |
| ple | 1 | – | 2019 | 6908 | 1026 | 2386 | inactive |
| CG32053 | 1 | – | 4451 | – | 1975 | – | inactive |
| exu | 1 | – | 13752 | – | 3332 | – | inactive |
| CG18128 | 1 | – | 2464 | 6630 | 770 | 2129 | inactive |
| mthl6 | 1 | – | 1912 | 9280 | 1133 | 3018 | inactive |
| tai | 1 | – | 1481 | 3929 | 432 | 730 | inactive |
| tai | 2 | – | 1625 | 5168 | 610 | 2760 | inactive |
| mRpL32 | 1 | – | 8359 | – | 3458 | – | inactive |
| Hayan | 1 | – | 3312 | 7860 | 1152 | 2788 | inactive |
| Hayan | 2 | – | 8.42e5 | 8.44e5 | 3.72e5 | 3.91e5 | inactive |

Sorted by “Renilla control light, replicate 1” (low to high): some entries from above.
| gene | reagent no. | reporter change call, replicate 1 | firefly reporter light, replicate 1 | firefly reporter light, replicate 2 | Renilla control light, replicate 1 | Renilla control light, replicate 2 | activity call |
| --- | --- | --- | --- | --- | --- | --- | --- |
| DIP-zeta | 3 | – | 2048 | 7088 | 682 | 2753 | inactive |
| DIP-zeta | 1 | – | 3216 | 8194 | 955 | 4004 | inactive |
| DIP-zeta | 2 | – | 4449 | 10945 | 976 | 4773 | inactive |
| CR33283 | 1 | – | 5.20e5 | 5.59e5 | 2.06e5 | 2.48e5 | inactive |
